Results on 42 sequences are retold here after PMC7819943, “Rice protein-binding microarrays: a tool to detect cis-acting elements near promoter regions in rice”.

The other results are listed elsewhere or left out.

This assay has as its target T1, OsSMF1 (Oryza sativa, UniProt Q6ZLB0 1-436).
T1 sequence: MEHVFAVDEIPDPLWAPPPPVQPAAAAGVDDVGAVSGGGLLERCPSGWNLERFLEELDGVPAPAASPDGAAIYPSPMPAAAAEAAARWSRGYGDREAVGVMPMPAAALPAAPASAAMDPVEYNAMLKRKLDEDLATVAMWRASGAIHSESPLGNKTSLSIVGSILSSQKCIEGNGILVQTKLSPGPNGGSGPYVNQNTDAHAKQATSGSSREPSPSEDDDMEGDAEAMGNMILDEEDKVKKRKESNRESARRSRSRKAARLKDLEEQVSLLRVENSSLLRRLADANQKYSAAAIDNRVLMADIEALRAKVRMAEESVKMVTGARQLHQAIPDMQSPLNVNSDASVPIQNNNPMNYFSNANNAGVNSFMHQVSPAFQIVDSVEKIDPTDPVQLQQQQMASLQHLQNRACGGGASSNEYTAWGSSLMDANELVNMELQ
In words: protein-binding microarray (RPBM); PBS, 2% BSA, 51.3 ng/ul salmon testes DNA, 50 uM zinc acetate, 200 nM TF, 25 C, 1 h; high values mean tight binding. As to conditions: protein: recombinant; tags: N-terminal polyhistidine and DsRed monomer fusion (pET32a); chain copies: 2; label: CyDye5-dUTP incorporated in the synthesized complementary strand; 3' TTTTT single-stranded linker to array surface; dsDNA, one strand shown. The procedure, abridged: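 An Axon 4000B scanner gave the binding signal as per-feature fluorescence intensity in arbitrary units. This followed washing of a custom Agilent array that had been incubated for 1 h at 25 °C with 200 nM protein in PBS, 2% BSA, salmon testes DNA and 50 µM zinc acetate. The proteins were transcription factors fused at the N-terminus to polyhistidine and DsRed, expressed in E. coli BL21-CodonPlus and purified on Ni–NTA.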
On to “TCACTCCCTCCCACTCCAACCACCACATCAGCATCAGCAACGGAGTCACCTAGTGCAG”, for which the binding signal is 7390 fluorescence intensity (a.u.). The figure for “GTTGACCCATGTCACCACCCTAGCCACCCAATCGACCTTCCGGAGTCACCTAGTGCAG” is 3190 fluorescence intensity (a.u.); for “GATCGCGCTCCCGGCATCTAGCTGGCTCCAATCCGTTGCACGGAGTCACCTAGTGCAG” it is 3970 fluorescence intensity (a.u.); for “TTTGTGGTTGGAGGTTATGAATCATACTCGAGGCATAGTTCGGAGTCACCTAGTGCAG” it is 22000 fluorescence intensity (a.u.). The figure for “TACAGATGCCCGTCATGACTCATGATCCGTTTGGATCAAACGGAGTCACCTAGTGCAG” is 4140 fluorescence intensity (a.u.). The figure for “GGCGGCGGCGGAGGAGGAGGCGGATGTGGCGGCGGAGAGCCGGAGTCACCTAGTGCAG” is 3900 fluorescence intensity (a.u.); for “TTTCCAATCAATACATTGCCAATTTGCCATGCCCCGCGCGCGGAGTCACCTAGTGCAG” it is 4990 fluorescence intensity (a.u.). As for “TTCTTCCTCGCTTGTGGCCCTGCCAGCTCAGTCTGGACCGCGGAGTCACCTAGTGCAG”, the binding signal was 7410 fluorescence intensity (a.u.).

Consider “ACGGACATTTTGTCTATGACGCGGTAAGAGGGAGGGAAAACGGAGTCACCTAGTGCAG”, for which the binding signal was 4930 fluorescence intensity (a.u.). The figure for “TTGCAGCGTGCAGCTGACTCTACCGGTTAAAGGCATGTACCGGAGTCACCTAGTGCAG” is 4590 fluorescence intensity (a.u.).

Turning to “AATATTATTGACTTGTAGGACATGACGCTTGACTGATAATCGGAGTCACCTAGTGCAG”, the binding signal was 3930 fluorescence intensity (a.u.). In the case of “ACGCTCCCACGGGAGGTGGCAGTTGACGTCGTCCCGTCATCGGAGTCACCTAGTGCAG”, the binding signal was 4380 fluorescence intensity (a.u.).

As to “TAACTCAGCCGACAGACGCATTGCTTACACACGTCGTAACCGGAGTCACCTAGTGCAG”, the binding signal is 3720 fluorescence intensity (a.u.). As for “GTCAGCTAGCGTACGTCTAGACTAGACCGCGTAATAACAGCGGAGTCACCTAGTGCAG”, the binding signal was 3170 fluorescence intensity (a.u.). With “AGCCTGACATGTTCAGGCCTAGTCATATAAATCCAATTGTCGGAGTCACCTAGTGCAG”, the binding signal was 6160 fluorescence intensity (a.u.). Regarding “CACTATGACCCGTGGCAATGAATTCCCCAATCAGCAACTGCGGAGTCACCTAGTGCAG”, the binding signal was 3250 fluorescence intensity (a.u.). On to “TGTGGCGCAAACTAACTATATTGTGACTAATCATGAGTTTCGGAGTCACCTAGTGCAG”, for which the binding signal was 4700 fluorescence intensity (a.u.).

As to “CAACAAGAAGCGGAAGCTCCCCGAGAAGCAGCTCCCCGACCGGAGTCACCTAGTGCAG”, the binding signal is 16100 fluorescence intensity (a.u.). The figure for “GAGAGATAAGGGCAACTACACACGTCGGTTGTGCTGGTAGCGGAGTCACCTAGTGCAG” is 4570 fluorescence intensity (a.u.); for “TTAGTTTTCCGATGGCTATGTATGCATGCGCACGCGGAGCCGGAGTCACCTAGTGCAG” it is 3260 fluorescence intensity (a.u.). Take “TATGGGAGAAAGGGAGCTGCCAATTGCCATGCTATTTGTGCGGAGTCACCTAGTGCAG”: the binding signal was 3340 fluorescence intensity (a.u.).

As for “CTCCCACACCCTCCCGCTCAGCTCCGCCGCGGCACCGCCACGGAGTCACCTAGTGCAG”, the binding signal was 3940 fluorescence intensity (a.u.). For “GTTGTGTTTTGGAGACTGTGTCGCTGTCCTAAACGACTTCCGGAGTCACCTAGTGCAG”, the binding signal is 3660 fluorescence intensity (a.u.). Consider “CGCAATCCGCCGCTTGCCTTCGCCGCCGCCCGCGCTGAATCGGAGTCACCTAGTGCAG”, for which the binding signal was 3450 fluorescence intensity (a.u.). With “AACTCTCTCCGCTCGCACGCCGTTCCATATATAAGACCACCGGAGTCACCTAGTGCAG”, the binding signal was 3690 fluorescence intensity (a.u.).

For the sequence “GAGGATAGGGATGTCGTCAGCGTTGGAGACAATAGTCTTGCGGAGTCACCTAGTGCAG”, the binding signal is 5720 fluorescence intensity (a.u.). The figure for “CTCTTCCTCTCCACTTCGGTGCAGGATCTGGAGCAGTGTTCGGAGTCACCTAGTGCAG” is 3300 fluorescence intensity (a.u.); for “TGCCAGACTGACAGTCACTTGTACACGCAGTATAATATCCCGGAGTCACCTAGTGCAG” it is 3160 fluorescence intensity (a.u.). The figure for “ATATTTTATAACATTTTCAAATAAACCAATTTCTACCTTTCGGAGTCACCTAGTGCAG” is 17900 fluorescence intensity (a.u.); for “GTGGGCCATCTGACAGTGCATACAGGAACTTTCCCCTTCTCGGAGTCACCTAGTGCAG” it is 4930 fluorescence intensity (a.u.); for “CGATGTGAAGCAGATGTGTCAAATGGGCACCCTTGCGGCCCGGAGTCACCTAGTGCAG” it is 3370 fluorescence intensity (a.u.). The figure for “CAACAGATTAATGACATGTCAACAGCTGCATGCTCTAGCTCGGAGTCACCTAGTGCAG” is 5080 fluorescence intensity (a.u.); for “AACTTTCATAAGCAAAATATCAAACGACTTATAATTTTATCGGAGTCACCTAGTGCAG” it is 26300 fluorescence intensity (a.u.); for “AATTTCCTCACATCGACCGTTGACTCATCCACTTCACTGCCGGAGTCACCTAGTGCAG” it is 5700 fluorescence intensity (a.u.). For “AATCCTACTGCCTCCGTCCCAAAATATAATAGCTTTTAGCCGGAGTCACCTAGTGCAG”, the binding signal was 3530 fluorescence intensity (a.u.). The figure for “GGAGTGTCTCTATTGCCGCTGATGGGTTGTATGACGCTCGCGGAGTCACCTAGTGCAG” is 4590 fluorescence intensity (a.u.); for “CCATGTTGAAATTAATGGATCGATGTTACGGTAGGATTAGCGGAGTCACCTAGTGCAG” it is 3190 fluorescence intensity (a.u.); for “TAGCGCCACATCACTTGATAAGATAGGAATTTATTCTTGCCGGAGTCACCTAGTGCAG” it is 6250 fluorescence intensity (a.u.).

Regarding “ATTCCTTAAAATACTCTCAAGCTGCCACGTGGCGCTCTAACGGAGTCACCTAGTGCAG”, the binding signal was 31300 fluorescence intensity (a.u.).

For “GAATAAATATCTCTATTCCTGCGTCATCCCCATCTCTCGCCGGAGTCACCTAGTGCAG”, the binding signal was 6550 fluorescence intensity (a.u.).

Consider “ATTCCCCGCCTTGTTTCCCTCTTTCCACGTCGCGAGAGGCCGGAGTCACCTAGTGCAG”, for which the binding signal was 3600 fluorescence intensity (a.u.).

“GTGCAAGCTAGCTTCTCGCTCTCGCGCCTATAAATTGGGCCGGAGTCACCTAGTGCAG”: the binding signal was 3450 fluorescence intensity (a.u.).
